The text below walks through data of the M2OR odorant receptor database.

Chains of the proteins cited; added tags and fusions are not shown. A change or cut given only in a name is not applied to a line headed by its entry. Chains listed by the source or under a name are the forms on record and can include a tag or linker.
UniProt Q8NGT2: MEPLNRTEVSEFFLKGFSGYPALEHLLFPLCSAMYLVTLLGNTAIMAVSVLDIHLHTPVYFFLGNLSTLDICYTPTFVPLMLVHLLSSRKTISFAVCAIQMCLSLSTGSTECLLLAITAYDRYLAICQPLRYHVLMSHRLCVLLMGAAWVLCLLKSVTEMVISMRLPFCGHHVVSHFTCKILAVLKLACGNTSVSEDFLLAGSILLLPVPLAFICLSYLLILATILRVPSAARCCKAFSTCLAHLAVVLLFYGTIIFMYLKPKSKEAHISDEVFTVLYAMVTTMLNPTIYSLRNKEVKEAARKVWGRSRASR
UniProt Q8NHC5: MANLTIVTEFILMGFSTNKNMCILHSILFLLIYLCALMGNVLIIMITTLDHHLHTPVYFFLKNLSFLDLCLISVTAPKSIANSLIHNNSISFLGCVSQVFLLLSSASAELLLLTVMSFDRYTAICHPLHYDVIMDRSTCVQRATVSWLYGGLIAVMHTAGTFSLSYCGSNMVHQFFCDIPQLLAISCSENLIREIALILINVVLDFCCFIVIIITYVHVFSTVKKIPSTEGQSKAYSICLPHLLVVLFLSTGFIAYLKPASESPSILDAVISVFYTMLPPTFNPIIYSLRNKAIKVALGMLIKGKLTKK
UniProt Q8NHC7: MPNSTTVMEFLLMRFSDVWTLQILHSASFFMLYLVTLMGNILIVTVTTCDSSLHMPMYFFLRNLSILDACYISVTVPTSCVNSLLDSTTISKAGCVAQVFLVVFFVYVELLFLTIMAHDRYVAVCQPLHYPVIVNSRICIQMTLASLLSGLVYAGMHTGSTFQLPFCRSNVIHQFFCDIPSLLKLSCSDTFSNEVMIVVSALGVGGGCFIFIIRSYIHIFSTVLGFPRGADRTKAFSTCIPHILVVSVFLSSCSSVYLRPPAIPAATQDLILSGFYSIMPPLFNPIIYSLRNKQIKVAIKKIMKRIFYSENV
UniProt Q8NGZ2: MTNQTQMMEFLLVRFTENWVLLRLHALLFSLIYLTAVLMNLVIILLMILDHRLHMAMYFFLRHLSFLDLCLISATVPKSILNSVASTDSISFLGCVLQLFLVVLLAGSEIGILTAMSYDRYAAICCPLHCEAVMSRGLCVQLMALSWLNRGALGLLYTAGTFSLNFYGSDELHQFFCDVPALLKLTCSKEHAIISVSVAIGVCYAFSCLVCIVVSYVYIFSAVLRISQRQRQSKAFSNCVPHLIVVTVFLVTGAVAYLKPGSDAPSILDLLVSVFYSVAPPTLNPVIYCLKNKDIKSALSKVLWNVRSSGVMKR
UniProt Q8NHC6, as listed by the source: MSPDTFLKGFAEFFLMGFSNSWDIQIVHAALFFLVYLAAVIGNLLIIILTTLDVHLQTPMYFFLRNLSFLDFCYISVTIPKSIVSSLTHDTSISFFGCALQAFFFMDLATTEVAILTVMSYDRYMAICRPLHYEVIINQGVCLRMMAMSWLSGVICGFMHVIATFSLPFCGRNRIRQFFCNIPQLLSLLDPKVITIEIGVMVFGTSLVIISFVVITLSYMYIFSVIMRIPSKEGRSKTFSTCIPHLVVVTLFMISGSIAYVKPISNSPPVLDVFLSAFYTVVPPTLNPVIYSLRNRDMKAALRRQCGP
OR1A1 A106T, as listed by the source, stated change not applied: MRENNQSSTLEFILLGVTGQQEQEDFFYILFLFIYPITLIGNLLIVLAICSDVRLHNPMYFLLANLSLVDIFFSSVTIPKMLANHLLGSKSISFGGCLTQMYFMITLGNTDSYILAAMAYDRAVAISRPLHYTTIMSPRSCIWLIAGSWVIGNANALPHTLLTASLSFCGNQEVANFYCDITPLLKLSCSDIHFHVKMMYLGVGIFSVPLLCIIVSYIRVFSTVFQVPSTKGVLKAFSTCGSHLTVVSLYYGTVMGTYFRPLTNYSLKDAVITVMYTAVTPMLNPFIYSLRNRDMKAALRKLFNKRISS
OR1A1 A106G, as listed by the source, stated change not applied: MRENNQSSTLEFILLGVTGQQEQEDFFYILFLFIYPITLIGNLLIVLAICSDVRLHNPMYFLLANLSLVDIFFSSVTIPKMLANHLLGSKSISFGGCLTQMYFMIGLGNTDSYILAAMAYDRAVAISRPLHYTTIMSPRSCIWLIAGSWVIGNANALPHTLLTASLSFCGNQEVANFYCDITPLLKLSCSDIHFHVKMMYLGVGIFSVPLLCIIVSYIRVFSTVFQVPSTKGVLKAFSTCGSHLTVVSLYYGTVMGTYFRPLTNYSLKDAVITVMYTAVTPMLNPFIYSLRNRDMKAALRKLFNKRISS

Common to all, as to conditions: stereoisomer not certain
One assay addresses T1, OR14J1 (Homo sapiens) (UniProt Q9UGF5).
T1 sequence (whole entry): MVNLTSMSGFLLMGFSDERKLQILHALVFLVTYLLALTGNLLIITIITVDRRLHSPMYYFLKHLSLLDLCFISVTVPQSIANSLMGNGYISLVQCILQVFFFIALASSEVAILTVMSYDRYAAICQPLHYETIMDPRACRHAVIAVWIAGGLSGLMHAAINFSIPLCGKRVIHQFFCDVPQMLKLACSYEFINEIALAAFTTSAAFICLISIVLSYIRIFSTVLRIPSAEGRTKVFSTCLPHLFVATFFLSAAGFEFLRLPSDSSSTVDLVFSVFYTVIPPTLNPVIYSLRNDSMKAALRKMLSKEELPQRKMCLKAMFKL
The method, boiled down:
(§1)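 Assay methods differ from source to source, frequently being transient luciferase assays in mammalian cell lines. For each receptor–molecule pair, the label responsive (active) applies when the original authors judged the measured signal statistically different from baseline, and non-responsive (inactive) applies otherwise.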

The target in another assay is T2, OR1A1 (Homo sapiens) (UniProt Q9P1Q5).
T2 sequence (whole entry): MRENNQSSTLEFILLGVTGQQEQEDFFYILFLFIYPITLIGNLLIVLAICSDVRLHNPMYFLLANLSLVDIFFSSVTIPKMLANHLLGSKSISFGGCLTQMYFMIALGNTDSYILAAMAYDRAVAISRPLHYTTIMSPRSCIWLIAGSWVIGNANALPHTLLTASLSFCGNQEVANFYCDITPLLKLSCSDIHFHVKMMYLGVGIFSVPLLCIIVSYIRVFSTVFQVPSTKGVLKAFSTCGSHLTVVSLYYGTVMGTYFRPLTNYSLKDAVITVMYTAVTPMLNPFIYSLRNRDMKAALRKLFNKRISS
The method, boiled down:
as §1

In another assay the target is OR13J1 (Homo sapiens) (UniProt Q8NGT2). The method, boiled down:
as §1

Another assay has as its target OR14A16 (Homo sapiens) (UniProt Q8NHC5). The procedure, abridged: as §1
In a further assay the target is OR14C36 (Homo sapiens) (UniProt Q8NHC7). The procedure, abridged:
as §1

A further assay deals with OR14K1 (Homo sapiens) (UniProt Q8NGZ2). The procedure, abridged:
as §1

Another assay concerns the target OR14L1 (Homo sapiens) (UniProt Q8NHC6). The method, boiled down: as §1
A further assay deals with OR1A1 (Pan troglodytes) (UniProt Q9TUA7). The procedure, abridged: as §1
For a further assay, the system named is OR1A1 A106G. The method, boiled down:
as §1

A further assay concerns OR1A1 A106T. The procedure, abridged: as §1

The entries are a selection whose mix differs from that of the whole data set. The calls were merged from several studies; some rest on single wells. The list shows a part of the results. The list shows a part of the results.

As for `CCCCCCCCOC(C)=O`, the “odorant receptor agonist call” value in the assay with OR14J1 (Homo sapiens) was “inactive”. Besides, the “odorant receptor agonist call” value with OR1A1 (Homo sapiens) was “active”.
The matching figures for `CCCCCCCCCC=O`: “inactive” and “inactive”.
Taken in the same sequence, the figures for `CC(=O)C(C)=O` were “inactive” and “inactive”.
The matching figures for `O=C1CCCCCCCCCCCCCCO1`: “inactive” and “inactive”.
For `CC1=NC(C)SC1C` (centres undefined), the “odorant receptor agonist call” value with OR14J1 (Homo sapiens) and with OR1A1 (Homo sapiens) was “inactive” each time.
As to `C=CCSCC=C`, the “odorant receptor agonist call” value in the assay with OR14J1 (Homo sapiens) and with OR1A1 (Homo sapiens) was “inactive” each time.
As to `CC(=O)OCC=C(C)CCC=C(C)C`, the “odorant receptor agonist call” value with OR14J1 (Homo sapiens) and in the assay with OR1A1 (Homo sapiens) was “inactive” in each case.
Take `COc1cc(C=O)ccc1O`: the “odorant receptor agonist call” value with OR14J1 (Homo sapiens) and in the assay with OR1A1 (Homo sapiens) was “inactive” in each case.
For `CC12C=CCC1C1CCC3CC(=O)CCC3(C)C1CC2` (centres undefined), the “odorant receptor agonist call” value in the assay with OR13J1 (Homo sapiens), in the assay with OR14A16 (Homo sapiens), with OR14C36 (Homo sapiens), in the assay with OR14J1 (Homo sapiens), with OR14K1 (Homo sapiens) and with OR14L1 (Homo sapiens) was “inactive” each time. In addition, the “odorant receptor agonist call” value in the assay with OR1A1 (Homo sapiens) is “inactive”.
Take `CC(C)C=O`: the “odorant receptor agonist call” value in the assay with OR14J1 (Homo sapiens) and with OR1A1 (Homo sapiens) was “inactive” throughout.
Take `COc1cc(C)ccc1O`: the “odorant receptor agonist call” value with OR14J1 (Homo sapiens) and in the assay with OR1A1 (Homo sapiens) was “inactive” in each case.
Consider `CCCCCOC(C)=O`, for which the “odorant receptor agonist call” value with OR14J1 (Homo sapiens) and with OR1A1 (Homo sapiens) was “inactive” in each case.
For `CCCCCCCC=O`, the “odorant receptor agonist call” value with OR14J1 (Homo sapiens) and with OR1A1 (Homo sapiens) was “inactive” throughout.
Turning to `CC(C)CCC(=O)O`, the “odorant receptor agonist call” value in the assay with OR14J1 (Homo sapiens) and with OR1A1 (Homo sapiens) was “inactive” in each case.
Regarding `CC1COCc2cc3c(cc21)C(C)(C)C(C)C3(C)C` (centres undefined), the “odorant receptor agonist call” value with OR14J1 (Homo sapiens) and in the assay with OR1A1 (Homo sapiens) was “active” throughout.
As for `O=CCc1ccccc1`, the “odorant receptor agonist call” value with OR14J1 (Homo sapiens) and with OR1A1 (Homo sapiens) was “inactive” throughout.
As to `CC(C)(C)c1ccc(CCC=O)cc1`, the “odorant receptor agonist call” value with OR14J1 (Homo sapiens) and in the assay with OR1A1 (Homo sapiens) was “inactive” in each case.
Consider `O=C1CCCCC1`, for which the “odorant receptor agonist call” value with OR14J1 (Homo sapiens) and with OR1A1 (Homo sapiens) was “inactive” throughout.
Regarding `CC12C=CCC1C1CCC3=CC(=O)CCC3(C)C1CC2` (centres undefined), the “odorant receptor agonist call” value in the assay with OR14J1 (Homo sapiens) and with OR1A1 (Homo sapiens) was “inactive” each time.
On to `C=CC(C)(O)CCC=C(C)C` (centres undefined), for which the “odorant receptor agonist call” value in the assay with OR14J1 (Homo sapiens) and with OR1A1 (Homo sapiens) was “inactive” throughout.
Regarding `CC(C)C(=O)O`, the “odorant receptor agonist call” value with OR14J1 (Homo sapiens) and with OR1A1 (Homo sapiens) was “inactive” throughout.
On to `CC12CCC(CC1)C(C)(C)O2`, for which the “odorant receptor agonist call” value in the assay with OR14J1 (Homo sapiens) and with OR1A1 (Homo sapiens) was “inactive” in each case.
For the compound `CCCC(=O)O`, the “odorant receptor agonist call” value with OR14J1 (Homo sapiens) and with OR1A1 (Homo sapiens) was “inactive” in each case.
As for `CC12CCC(C1)C(C)(C)C2=O` (centres undefined), the “odorant receptor agonist call” value with OR14J1 (Homo sapiens) and with OR1A1 (Homo sapiens) was “inactive” each time.
In the case of `CC=Cc1ccc(O)c(OC)c1`, the “odorant receptor agonist call” value with OR14J1 (Homo sapiens) is “inactive”.
Take `CC(=O)c1ccccc1`: the “odorant receptor agonist call” value in the assay with OR14J1 (Homo sapiens) and with OR1A1 (Homo sapiens) was “inactive” throughout.
For `CCCCCCCCCCC=O`, the “odorant receptor agonist call” value in the assay with OR14J1 (Homo sapiens) and in the assay with OR1A1 (Homo sapiens) was “inactive” in each case.
Regarding `CCCCCC(=O)O`, the “odorant receptor agonist call” value in the assay with OR14J1 (Homo sapiens) and in the assay with OR1A1 (Homo sapiens) was “inactive” throughout.
`CC(=O)OC1CC2CCC1(C)C2(C)C` (centres undefined): the “odorant receptor agonist call” value in the assay with OR14J1 (Homo sapiens) and in the assay with OR1A1 (Homo sapiens) was “inactive” throughout.
As to `C=C(C)C1CC=C(C)C(=O)C1` (centres undefined), the “odorant receptor agonist call” value in the assay with OR1A1 (Homo sapiens), with OR1A1 A106G and in the assay on OR1A1 A106T was “active” in each case. Moreover, the “odorant receptor agonist call” value with OR1A1 (Pan troglodytes) was “inactive”.
In the case of `CCC=CCCO`, the “odorant receptor agonist call” value in the assay with OR14J1 (Homo sapiens) and in the assay with OR1A1 (Homo sapiens) was “inactive” each time.
For the compound `CC(=O)OC(C)(C)C1CC=C(C)CC1` (centres undefined), the “odorant receptor agonist call” value with OR14J1 (Homo sapiens) is “inactive”. Moreover, the “odorant receptor agonist call” value with OR1A1 (Homo sapiens) was “active”.
On to `CCCCCCCCC=O`, for which, in the assay with OR1A1 (Homo sapiens), the “odorant receptor agonist call” value is “inactive”.
With `CCC1(O)C2(C)CCC(C2)C1(C)C` (centres undefined), the “odorant receptor agonist call” value with OR14J1 (Homo sapiens) and in the assay with OR1A1 (Homo sapiens) was “inactive” each time.
For `CCCCCCCC=CC=O`, the “odorant receptor agonist call” value with OR14J1 (Homo sapiens) and with OR1A1 (Homo sapiens) was “inactive” throughout.
As for `O=C1CCCCCCCCCCCC(=O)OCCO1`, the “odorant receptor agonist call” value in the assay with OR14J1 (Homo sapiens) and in the assay with OR1A1 (Homo sapiens) was “inactive” in each case.
Regarding `C=CCc1ccc(O)c(OC)c1`, the “odorant receptor agonist call” value with OR1A1 (Homo sapiens) was “inactive”.
Take `COC(=O)c1ccccc1`: the “odorant receptor agonist call” value with OR14J1 (Homo sapiens) and with OR1A1 (Homo sapiens) was “inactive” each time.
Take `CC(C)CC(=O)O`: the “odorant receptor agonist call” value in the assay with OR14J1 (Homo sapiens) and with OR1A1 (Homo sapiens) was “inactive” throughout.
Regarding `COc1ccccc1O`, the “odorant receptor agonist call” value with OR14J1 (Homo sapiens) and with OR1A1 (Homo sapiens) was “inactive” throughout.
As for `C=CCc1ccc(OC)c(OC)c1`, the “odorant receptor agonist call” value with OR14J1 (Homo sapiens) and with OR1A1 (Homo sapiens) was “inactive” in each case.
In the case of `CC1=CCC(C(C)(C)O)CC1` (centres undefined), the “odorant receptor agonist call” value with OR14J1 (Homo sapiens) and in the assay with OR1A1 (Homo sapiens) was “inactive” throughout.
With `c1ccc(Oc2ccccc2)cc1`, the “odorant receptor agonist call” value in the assay with OR14J1 (Homo sapiens) is “inactive”. Also, the “odorant receptor agonist call” value with OR1A1 (Homo sapiens) was “active”.
The matching figures for `C=CCc1ccc(OC(C)=O)c(OC)c1`: “inactive” and “inactive”.
Taken in the same sequence, the figures for `CC(C)=CCCC(C)=CC=O` were “inactive” and “active”.
The matching figures for `CCCCCC(C)=O`: “inactive” and “active”.
Regarding `CC(C)(O)CCCC1=CCC(C=O)CC1` (centres undefined), the “odorant receptor agonist call” value with OR1A1 (Homo sapiens) was “inactive”.
As to `CCCCCCOC(=O)CCC`, the “odorant receptor agonist call” value with OR14J1 (Homo sapiens) and with OR1A1 (Homo sapiens) was “inactive” each time.
On to `CCCCCCCOC(C)=O`, for which the “odorant receptor agonist call” value with OR14J1 (Homo sapiens) and in the assay with OR1A1 (Homo sapiens) was “inactive” in each case.
`CCCCO`: the “odorant receptor agonist call” value with OR14J1 (Homo sapiens) and with OR1A1 (Homo sapiens) was “inactive” in each case.
Consider `c1cnccn1`, for which the “odorant receptor agonist call” value in the assay with OR14J1 (Homo sapiens) and with OR1A1 (Homo sapiens) was “inactive” throughout.
Take `COC(=O)c1ccccc1O`: the “odorant receptor agonist call” value in the assay with OR14J1 (Homo sapiens) and with OR1A1 (Homo sapiens) was “inactive” each time.
On to `CC1CCC(C(C)C)C(O)C1` (centres undefined), for which, in the assay with OR14J1 (Homo sapiens), the “odorant receptor agonist call” value was “inactive”. Further, the “odorant receptor agonist call” value with OR1A1 (Homo sapiens) was “active”.
